In PMC11334498:
No constants are given. Whether binding was seen depends on the method and setting. Binding seen in cells or lysates may run through a third protein. Some binding calls cover weakened binding; strength is not graded here.

Amino acid sequences for entries named in this document (tags omitted).
UniProt Q16665: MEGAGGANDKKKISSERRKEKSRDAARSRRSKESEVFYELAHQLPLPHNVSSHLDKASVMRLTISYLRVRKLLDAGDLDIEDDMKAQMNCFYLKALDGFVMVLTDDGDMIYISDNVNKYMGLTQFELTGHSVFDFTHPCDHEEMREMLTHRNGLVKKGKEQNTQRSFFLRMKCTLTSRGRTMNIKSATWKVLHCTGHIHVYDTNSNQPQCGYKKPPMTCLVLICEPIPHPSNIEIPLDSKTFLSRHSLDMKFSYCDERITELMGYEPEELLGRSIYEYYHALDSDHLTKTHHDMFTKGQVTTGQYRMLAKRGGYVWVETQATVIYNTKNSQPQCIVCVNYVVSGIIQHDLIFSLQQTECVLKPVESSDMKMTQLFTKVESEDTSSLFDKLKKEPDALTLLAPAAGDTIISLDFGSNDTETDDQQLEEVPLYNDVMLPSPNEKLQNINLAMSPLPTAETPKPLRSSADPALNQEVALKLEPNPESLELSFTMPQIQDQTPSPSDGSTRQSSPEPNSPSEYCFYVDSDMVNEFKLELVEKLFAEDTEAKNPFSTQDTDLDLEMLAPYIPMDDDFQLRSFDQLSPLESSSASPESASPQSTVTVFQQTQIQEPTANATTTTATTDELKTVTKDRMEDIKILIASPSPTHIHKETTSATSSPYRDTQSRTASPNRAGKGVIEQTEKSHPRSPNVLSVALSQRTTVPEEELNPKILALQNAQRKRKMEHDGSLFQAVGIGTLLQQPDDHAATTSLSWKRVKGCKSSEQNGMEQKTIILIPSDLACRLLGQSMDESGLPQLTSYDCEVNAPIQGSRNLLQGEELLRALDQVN

What was measured:
[1] = biological target: T1, PHD4 (prolyl 4-hydroxylase, transmembrane), coded by P4HTM (human (endogenous in human CRC cell lines)) (UniProt Q9NXG6); assay: co-IP; Co-IP Kit (Bersin); cell lysate with protease inhibitors incubated overnight at 4 °C with beads conjugated to anti-HIF1A/PHD4/NXPH4/IgG antibodies; western blot; some panels after lentiviral NXPH4 knockdown or overexpression
T1 sequence: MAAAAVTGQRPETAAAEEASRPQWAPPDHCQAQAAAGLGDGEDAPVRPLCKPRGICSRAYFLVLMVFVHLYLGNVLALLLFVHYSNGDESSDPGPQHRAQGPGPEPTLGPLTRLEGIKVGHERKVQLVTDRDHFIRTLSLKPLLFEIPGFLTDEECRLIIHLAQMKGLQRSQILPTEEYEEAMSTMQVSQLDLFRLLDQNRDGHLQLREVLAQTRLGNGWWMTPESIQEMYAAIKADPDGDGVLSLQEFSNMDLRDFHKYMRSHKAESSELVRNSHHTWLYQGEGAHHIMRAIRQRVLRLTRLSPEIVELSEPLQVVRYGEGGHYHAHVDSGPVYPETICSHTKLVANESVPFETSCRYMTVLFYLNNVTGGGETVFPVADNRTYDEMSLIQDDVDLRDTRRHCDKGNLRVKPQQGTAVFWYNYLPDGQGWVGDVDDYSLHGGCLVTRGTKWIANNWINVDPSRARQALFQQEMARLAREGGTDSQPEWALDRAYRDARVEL

[2] = biological target: T2, Neurexophilin 4 (NXPH4) (human (endogenous in human CRC cell lines)) (UniProt O95158); assay: as above
T2 sequence: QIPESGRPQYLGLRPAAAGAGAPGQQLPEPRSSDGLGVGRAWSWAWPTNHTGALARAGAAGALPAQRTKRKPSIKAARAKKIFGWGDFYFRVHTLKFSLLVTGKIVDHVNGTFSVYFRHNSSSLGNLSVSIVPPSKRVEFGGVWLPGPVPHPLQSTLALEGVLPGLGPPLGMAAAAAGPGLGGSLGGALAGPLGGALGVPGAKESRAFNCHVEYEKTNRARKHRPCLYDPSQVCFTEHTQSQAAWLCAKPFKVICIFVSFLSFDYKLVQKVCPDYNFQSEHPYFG

## Hypoxia inducible factor-1A (HIF1A) (from UniProt Q16665 1-826)
[1]
  binding: binds
[2]
  binding: no binding
